Experimental data: article PMC10919088
Results are given in words; binding and its absence hold for the method and conditions named. Some entries that bind do so weakly or less than the wild type.

Molecular target: heat-labile enterotoxin B-subunit (LTB) of porcine ETEC (pLT), produced in Vmax (Escherichia coli (ETEC, porcine origin)) (UniProt P32890)
Assay: SEC

Substance	binding
heat-labile enterotoxin B-subunit (LTB) of porcine ETEC (pLT), produced in Vmax (from UniProt P32890 22-124)	binds
heat-labile enterotoxin catalytic A-subunit (LTA) of porcine ETEC (pLT), produced in Vmax (from UniProt P06717 19-258)	binds
